The other results are listed elsewhere or left out. These are further read-outs of the screen, such as a control signal, another cell line or another target. No call is given for them. The list favours compounds with an active or inconclusive main result. Words in brackets tell the shape of the fitted curve; partial curves, single points and poor fits give uncertain potencies.
Assay: qHTS Assay for Modulators of Lamin A Splicing
Settings: HeLa LMNA splicing GFP/RFP minigene ratio, 48 h
Method in brief: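 S3 HeLa cells stably expressing lamin A-EGFP splicing minigene plus DsRed2, 600 cells/well, 48 h compound exposure at 37C. Laser-scanning cytometry; analysed as GFP (500-530 nm)/RFP (575-640 nm) total intensity ratio; 0.5% DMSO vehicle.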

[1] = measured here: RFP viability control channel
[2] = measured here: GFP splicing reporter channel

Compound | AC50 [1] | AC50 [2]
CCn1c(SCC(=O)Nc2ccc3c(c2)OCCO3)nnc1-c1ccccn1 | 5.62 µM [falling, single point] | 
O=C(Nc1ccc2c(c1)OCCO2)Nc1ccc2c(c1)OCO2 |  | 0.0891 µM [falling, full curve, poor fit]
CCSc1ccccc1C(=O)Nc1nc2ccccc2c(=O)[nH]1 | 35.5 µM [falling, partial curve, poor fit] | 35.5 µM [falling, partial curve, poor fit]
CCOc1ccccc1N1CCN(C(=S)NC(=O)C23CC4CC(CC(C4)C2)C3)CC1 | 12.6 µM [rising, partial curve] | 14.1 µM [rising, partial curve]
COc1cccc(C(=O)/C=C/c2ccc(SC)cc2)c1 | 31.6 µM [falling, single point] | 22.4 µM [falling, single point]
CC(C)Oc1ccc(CN2CCc3nc(Nc4ccc5c(c4)OCCO5)ncc3C2)cc1 | 17.8 µM [falling, partial curve, poor fit] | 35.5 µM [falling, single point]
CNc1nccc(-c2ccc(Cl)cc2)c1C#N |  | 3.98 µM [rising, full curve, poor fit]
Cc1nc2nc(Cc3ccccc3)[nH]n2c(=O)c1Cl | 35.5 µM [falling, single point] | 22.4 µM [falling, single point]
Cc1ccc(C)n1-c1ccc(-c2nnc3n2CCCCC3)s1 | 11.2 µM [falling, partial curve] | 14.1 µM [falling, partial curve, poor fit]
COc1ccc(Nc2ncnc3c2cnn3Cc2ccccc2)cc1OC | 17.8 µM [rising, partial curve] | 
Cc1cccc2sc(NC(=O)C3CCN(S(=O)(=O)c4cc([N+](=O)[O-])ccc4Cl)CC3)nc12 | 10 µM [rising, partial curve] | 8.91 µM [rising, partial curve, poor fit]
Cc1ccc(/C=N/n2c(C)nc3ccccc3c2=O)s1 |  | 0.1 µM [falling, full curve, poor fit]
O=C(Nc1ccncc1)Nc1ccc(F)c(Cl)c1 | 35.5 µM [falling, single point] | 35.5 µM [falling, single point]
Fc1ccc(-c2noc3ncnc(Nc4ccc(F)cc4F)c23)cc1 |  | 0.316 µM [falling, full curve, poor fit]
COc1ccc(S(=O)(=O)c2c(Nc3c(C)cccc3C)sc(C(=O)c3ccc(F)cc3)c2N)cc1 |  | 1.12 µM [falling, full curve]
O=C(N/N=C/c1ccsc1)c1cc(-c2ccncc2)nc2ccccc12 | 4.47 µM [rising, full curve] | 0.447 µM [rising, full curve]
COc1nc(Nc2ccc3c(c2)OCO3)nc(OC)n1 | 3.98 µM [rising, single point] | 
Cc1ccc(C(=O)N2CCc3cc(CNC(=O)CSc4ccccc4)ccc32)cc1 | 0.0141 µM [rising, full curve, poor fit] | 0.316 µM [rising, partial curve, poor fit]
O=C(CSc1nnc(Cn2c(=O)sc3ccccc32)n1-c1ccccc1)N1CCOCC1 | 0.01 µM [falling, full curve] | 

Compound | AC50 [1] | AC50 [2]
CC(C)n1c(NCc2nc3ccccc3n2C)nc2ccccc21 | 17.8 µM [rising, single point] | 
O=C(C1CCN(S(=O)(=O)c2ccc3c(c2)OCCO3)CC1)N1CCc2ccccc21 | 17.8 µM [rising, single point] | 11.2 µM [rising, partial curve, poor fit]
CC(=O)N1CCc2cc(S(=O)(=O)Nc3cccc(C(F)(F)F)c3)ccc21 | 12.6 µM [rising, partial curve] | 
Cc1ccc(C)c(C(=O)CSc2n[nH]c(-c3ccncc3)n2)c1 | 14.1 µM [rising, partial curve] | 11.2 µM [rising, partial curve, poor fit]
O=[N+]([O-])c1ccc(O)c(C=Nc2ccc3nc(-c4ccccc4)[nH]c3c2)c1 | 35.5 µM [rising, single point] | 
CC(C)=Cc1oc2ccc([N+](=O)[O-])cc2c1N1CC(C)OC(C)C1 (stereo not given) |  | 0.00447 µM [falling, full curve, poor fit]
CN(NS(=O)(=O)c1ccc(Br)cc1)c1nc(C(F)(F)F)nc2ccccc12 | 35.5 µM [rising, single point] | 
COc1ccc(CNC(=O)C(=O)Nc2c3c(nn2-c2ccccc2)CSC3)cc1 |  | 0.0224 µM [falling, full curve]
CCN(CC)C(=O)c1c(-c2ccccc2)oc2ccc(OC)cc12 | 20 µM [rising, single point] | 12.6 µM [rising, partial curve]
O=C(Nc1ccccc1)Nc1cccc(Cl)c1 | 12.6 µM [rising, single point] | 
Nn1c(SCC(=O)NCc2ccccc2)nnc1C1CC1 |  | 12.6 µM [rising, single point]
Cc1cccc(S(=O)(=O)Nc2ccc(-c3cn4ccccc4n3)cc2)c1 | 11.2 µM [rising, partial curve] | 
O=C(c1cnn2c1NC(c1ccc(Br)cc1)CC2C(F)(F)F)N1CCN(C23CC4CC(CC(C4)C2)C3)CC1 (stereo not given) | 25.1 µM [rising, single point] | 
CCCCCCSc1nnc(-c2cnn(-c3ccccc3)c2-n2cccc2)n1C | 35.5 µM [rising, single point] | 
CCOC(=O)CSc1nc2ccsc2c(=O)n1C1CCN(C(=O)OCC)CC1 | 12.6 µM [rising, partial curve] | 
O=C(NCCc1csc(-c2ccc(C(F)(F)F)cc2)n1)c1ccc(F)c(F)c1 | 15.8 µM [rising, single point] | 
Cc1ccc(N2C(=O)c3n[nH]c(C)c3C2c2cccnc2)cc1 (stereo not given) | 2 µM [rising, full curve, poor fit] | 
COc1cccc2cc(C(C)N(CCCN3CCOCC3)C(=O)Nc3ccc(Cl)cc3)oc12 (stereo not given) | 12.6 µM [rising, single point] | 
Cc1nc(Nc2ccncc2)c2oc3ccccc3c2n1 | 12.6 µM [rising, partial curve] | 

In a second layout: three of the compounds above.
Compound	AC50 [1]	AC50 [2]
CC(C)=Cc1oc2ccc([N+](=O)[O-])cc2c1N1CC(C)OC(C)C1 (stereo not given)		0.00447 µM [falling, full curve, poor fit]
CCCCCCSc1nnc(-c2cnn(-c3ccccc3)c2-n2cccc2)n1C	35.5 µM [rising, single point]	
COc1cccc2cc(C(C)N(CCCN3CCOCC3)C(=O)Nc3ccc(Cl)cc3)oc12 (stereo not given)	12.6 µM [rising, single point]	

The listing continues:

Compound | AC50 [1] | AC50 [2]
COc1ccc(-c2ocnc2C(=O)N2CCN(Cc3cccnc3)CC2)cc1 | 0.141 µM [falling, full curve, poor fit] | 
COc1ccc(C(CCN(Cc2ccc(OC)c(OC)c2)C(=O)CCl)c2ccccc2)cc1 (stereo not given) | 35.5 µM [falling, single point] | 35.5 µM [falling, single point]
Cc1c(Cc2ccc3c(c2)OCO3)sc(NC(=O)c2ccc3ccccc3c2)c1C(N)=O |  | 0.00447 µM [falling, full curve, poor fit]
CCN(c1cccc(C(F)(F)F)c1)S(=O)(=O)c1ccc2c(c1)CCN2C(=O)C1CC1 | 11.2 µM [rising, partial curve, poor fit] | 
O=C(CC1CC2CCC1C2)OCC(=O)c1c[nH]c2ccccc12 (stereo not given) | 25.1 µM [falling, single point] | 17.8 µM [falling, single point]
CC(=O)Nc1cc(-c2nc3cc(Cl)ccc3o2)ccc1C | 0.02 µM [falling, full curve, poor fit] | 
CCSc1nnc(NC(=O)CSc2nnc(C)c(=O)n2N)s1 | 0.0141 µM [falling, full curve] | 
CC/C(=N\Nc1ccc([N+](=O)[O-])cc1)c1ccccc1 |  | 28.2 µM [falling, single point]
Cc1nc2sc3c(c2c(=N)n1N)CCCC3 | 0.794 µM [falling, single point] | 
O=C(O)CCc1ccc(S(=O)(=O)N2CCOCC2)cc1 | 5.62 µM [falling, single point] | 5.62 µM [falling, single point]
Cc1ccc2nc(NC(=O)C3CCN(S(=O)(=O)c4cccc5nsnc45)CC3)sc2c1 | 12.6 µM [rising, partial curve] | 
O=c1cc2c(nn1Cc1ccc(Cl)cc1Cl)-c1ccccc1CC2 | 28.2 µM [rising, single point] | 
O=C(O)c1ccccc1C(=O)c1ccc2c(c1)N(Cc1ccc(Cl)c(Cl)c1)C(=O)CO2 | 35.5 µM [rising, partial curve] | 35.5 µM [rising, single point]
Cc1ccc(-c2cc(C(=O)N3CCCc4ccccc43)c3ccccc3n2)cc1 | 20 µM [rising, single point] | 
CS(=O)(=O)c1ccc([C@H](O)[C@H](CO)NC(=O)C(Cl)Cl)cc1 | 0.251 µM [falling, full curve] | 0.282 µM [falling, partial curve, poor fit]
CC1(C)CC(=O)c2c(O)cc(OCc3ccc(Br)cc3)cc2O1 | 14.1 µM [rising, single point] | 
CN(CC(=O)NCc1ccc(Cl)cc1)S(=O)(=O)c1ccc2[nH]c3c(c2c1)CCCC3 | 35.5 µM [rising, partial curve] | 
O=c1[nH]cnc2c1ncn2C1OC(CO)C(O)C1O (stereo not given) |  | 31.6 µM [rising, single point]
COc1ccccc1CNC(=O)CCC1N=C2c3ccccc3N=C(SCC(=O)Nc3ccc(F)cc3)N2C1=O (stereo not given) | 0.0398 µM [falling, full curve, poor fit] | 

From PubChem BioAssay AID1487 (National Center for Advancing Translational Sciences (NCATS), 2009)
